Measurements reported in PubChem BioAssay AID652243 (Drosophila RNAi Screening Center, 2013).
Assay: 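Knock-downs that decrease or increase androgen receptor reporter signal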 (primary screen). Cell system: Drosophila S2R+ cells. Reagents: long dsRNA against Drosophila genes. Timing: 72 h (48 h, then 24 h hormone). Challenge: synthetic androgen R1881 at 10 nM for 24 h. Detection: 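Per-well raw luminescence of the androgen-driven firefly reporter and of the Renilla control, two replicates each, without normalisation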. Direction: firefly reporter light: higher = more light from androgen-responsive reporter; Renilla control light: higher = more constitutive control signal (cell number, transfection). Call rule: 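Across duplicate plates, a knock-down whose log firefly/Renilla ratio shifted a set fold down or up from the GFP/LacZ control mean was a hit; the downward cut appears as both 1.5 and 3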. Meaning of the calls: active = hit: reporter lowered or raised; inactive = no hit.
In all, the deposit lists about 24,000 reagents; shown is a random part of those that have a named target and a result. Of all reagents, 246 (1%) got an active call. 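Plates not normalised; calls are printed but the firefly/Renilla ratio behind them is not deposited; fold cut for lowering reported inconsistently.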 The raw values are shown without normalisation. The numbers tell different reagents against one gene apart. Names joined by + are all predicted targets of the reagent. Reagent sequences are not shown. The record does not give: the amount of reagent.

| gene | reagent no. | firefly reporter light, replicate 1 | firefly reporter light, replicate 2 | Renilla control light, replicate 1 | Renilla control light, replicate 2 | outcome |
| --- | --- | --- | --- | --- | --- | --- |
| CG34320 (retired record) | 1 | 5.66e5 | 5.02e5 | 1.26e6 | 1.29e6 | inactive |
| CG14650 | 1 | 5.04e5 | 6.50e5 | 1.97e6 | 1.81e6 | inactive |
| CG14650 | 2 | 1.35e6 | 1.16e6 | 1.08e6 | 8.01e5 | inactive |
| CG33914 | 1 | 9.14e5 | 6.78e5 | 2.18e6 | 1.75e6 | inactive |
| CG34332 | 1 | 7.48e5 | 6.87e5 | 1.73e6 | 2.11e6 | inactive |
| Tbce | 1 | 8.87e5 | 7.06e5 | 2.07e6 | 1.69e6 | inactive |
| promL | 1 | 8.72e5 | 1.16e6 | 1.61e6 | 1.56e6 | inactive |
| Pi3K59F | 1 | 6.51e5 | 6.96e5 | 1.19e6 | 1.53e6 | inactive |
| Pi3K59F | 2 | 4.77e5 | 3.94e5 | 1.51e6 | 1.21e6 | inactive |
| Pi3K59F | 3 | – | – | – | – | inactive |
| Pi3K59F | 4 | – | – | – | – | inactive |
| CG17475 | 1 | 1.72e5 | 1.27e5 | 1.64e6 | 1.87e6 | inactive |
| CG17475 | 2 | 6.13e5 | 4.59e5 | 6.61e5 | 7.48e5 | inactive |
| CG8401 | 1 | 1.10e6 | 8.86e5 | 2.41e6 | 2.10e6 | inactive |
| mthl6 | 1 | 1.54e5 | 1.96e5 | 1.82e6 | 2.29e6 | inactive |
| CG32061 | 1 | 7.49e5 | 7.33e5 | 1.74e6 | 1.04e6 | inactive |
| Tsen34 | 1 | 3.90e5 | 8.17e5 | 9.43e5 | 1.76e6 | inactive |
| ND-B14.7 | 1 | 1.48e5 | 2.18e5 | 1.47e6 | 1.39e6 | inactive |
| CG7766 | 1 | 1.22e5 | 1.26e5 | 6.54e5 | 6.50e5 | inactive |
| jar | 1 | 1.26e5 | 1.71e5 | 1.55e6 | 2.17e6 | inactive |
| ssp2 | 1 | 9.23e5 | 2.37e5 | 1.41e6 | 6.74e5 | inactive |
| ssp2 | 2 | 7.16e5 | 1.13e6 | 9.47e5 | 8.98e5 | inactive |
| CG30384 | 1 | 1.95e5 | 2.41e5 | 1.69e6 | 1.14e6 | inactive |
| His2B:CG33870 + His2B:CG33868 + His2B:CG33882 + 21 more | 1 | 5.78e5 | 3.59e5 | 2.16e5 | 1.75e5 | inactive |
| CG32532 | 1 | 2.89e5 | 3.27e5 | 1.06e6 | 6.04e5 | inactive |
| CG32532 | 2 | 2.16e5 | 1.40e5 | 5.94e5 | 4.45e5 | inactive |
| CG32532 | 3 | 6.22e5 | 5.93e5 | 2.12e6 | 1.82e6 | inactive |
| Cpr60D | 1 | 3.95e5 | 4.21e5 | 1.99e6 | 2.04e6 | inactive |
| CG9150 | 1 | 2.55e5 | 1.92e5 | 2.00e6 | 1.28e6 | inactive |
| CG9150 | 2 | 8.51e5 | 7.59e5 | 1.18e6 | 1.32e6 | inactive |
| Hou | 1 | 1.31e5 | 96741 | 1.01e6 | 1.18e6 | inactive |
| Hou | 2 | 6.67e5 | 6.51e5 | 2.89e6 | 2.96e6 | inactive |
| Hou | 3 | 3.66e5 | 3.76e5 | 6.86e5 | 6.07e5 | inactive |
| CG18081 | 1 | 2.14e5 | 1.41e5 | 1.85e6 | 1.78e6 | inactive |
| CG18081 | 2 | 7.02e5 | 7.46e5 | 7.94e5 | 8.50e5 | inactive |
| CG14135 | 1 | 3.19e5 | 2.91e5 | 3.27e6 | 1.95e6 | inactive |
| CG10132 | 1 | 8.60e5 | 1.10e6 | 1.33e6 | 1.73e6 | inactive |
| CG10132 | 2 | 8.47e5 | 5.30e5 | 2.94e6 | 1.66e6 | inactive |
| CG42685 | 1 | 3.25e5 | 3.30e5 | 2.03e6 | 1.94e6 | inactive |
| CG42685 | 2 | 9.24e5 | 8.08e5 | 2.33e6 | 1.64e6 | inactive |
| stwl | 1 | 1.42e5 | 1.06e5 | 5.43e5 | 4.24e5 | inactive |
| stwl | 2 | 1.64e5 | 2.76e5 | 8.53e5 | 5.73e5 | inactive |
| CG12911 | 1 | 2.83e5 | 1.46e5 | 1.76e6 | 1.03e6 | inactive |
| CG12911 | 2 | 9.77e5 | 6.02e5 | 2.66e6 | 1.69e6 | inactive |
| CG31176 | 1 | 2.06e5 | 2.02e5 | 3.08e6 | 3.31e6 | inactive |
| CG31176 | 2 | 2.14e5 | 2.67e5 | 2.89e6 | 4.32e6 | inactive |
| CG11050 | 1 | 2.17e5 | 2.93e5 | 8.23e5 | 8.66e5 | inactive |
| CG11050 | 2 | 7.81e5 | 1.07e6 | 9.08e5 | 9.70e5 | inactive |
| glob2 | 1 | 48864 | 60096 | 1.48e6 | 1.28e6 | inactive |
| mthl14 | 1 | 92539 | 1.65e5 | 2.70e5 | 3.79e5 | inactive |
| CG5347 | 1 | 7.18e5 | 7.42e5 | 4.85e6 | 5.37e6 | inactive |
| amrt | 1 | 3.02e5 | 3.63e5 | 1.95e6 | 2.75e6 | inactive |
| amrt | 2 | 4.06e5 | 2.72e5 | 8.72e5 | 5.29e5 | inactive |
| CSN1a | 1 | 1.08e5 | 1.39e5 | 1.68e6 | 2.18e6 | inactive |
| CG13946 | 1 | 1.30e5 | 1.46e5 | 5.97e5 | 8.50e5 | inactive |
| CG15514 | 1 | 75315 | 55353 | 8.72e5 | 6.19e5 | inactive |
| CG15514 | 2 | 3.73e5 | 3.26e5 | 1.00e6 | 1.24e6 | inactive |
| CG10737 | 1 | 5.41e5 | 3.66e5 | 9.59e5 | 8.09e5 | inactive |
| CG10737 | 2 | 3.32e5 | 2.77e5 | 7.18e5 | 6.39e5 | inactive |
| Asator | 1 | 2.15e5 | 2.17e5 | 2.56e6 | 2.32e6 | inactive |
| Asator | 2 | – | – | – | – | inactive |
| Asator | 3 | – | – | – | – | inactive |
| CG9281 | 1 | 1.26e5 | 99212 | 8.72e5 | 7.34e5 | inactive |
| CG9281 | 2 | 9.64e5 | 9.40e5 | 9.85e5 | 9.84e5 | inactive |
| Cyp301a1 | 1 | 4.30e5 | 2.50e5 | 1.34e6 | 1.45e6 | inactive |
| Gp150 | 1 | 8.84e5 | 7.88e5 | 2.92e6 | 3.15e6 | inactive |
| Gp150 | 2 | 5.04e5 | 6.01e5 | 1.21e6 | 1.31e6 | inactive |
| Gp150 | 3 | – | – | – | – | inactive |
| CycA | 1 | 32264 | 33545 | 3.23e5 | 3.89e5 | active |
| CycA | 2 | 72764 | 1.56e5 | 5.82e5 | 6.78e5 | active |
| CycA | 3 | – | – | – | – | active |
| ND-B22 | 1 | 1.49e5 | 1.50e5 | 1.87e6 | 1.75e6 | inactive |
| ND-B22 | 2 | 2.92e5 | 6.57e5 | 7.28e5 | 1.47e6 | inactive |
| Gnpnat | 1 | 1.41e5 | 1.58e5 | 1.33e6 | 7.85e5 | inactive |

Reprinted from above (4 entries):
| gene | reagent no. | firefly reporter light, replicate 1 | firefly reporter light, replicate 2 | Renilla control light, replicate 1 | Renilla control light, replicate 2 | outcome |
| --- | --- | --- | --- | --- | --- | --- |
| CG14135 | 1 | 3.19e5 | 2.91e5 | 3.27e6 | 1.95e6 | inactive |
| CG10132 | 1 | 8.60e5 | 1.10e6 | 1.33e6 | 1.73e6 | inactive |
| CG10132 | 2 | 8.47e5 | 5.30e5 | 2.94e6 | 1.66e6 | inactive |
| CG42685 | 1 | 3.25e5 | 3.30e5 | 2.03e6 | 1.94e6 | inactive |
